From US11292821B2, “Peptides and combination of peptides for use in immunotherapy against lung cancer, including NSCLC, SCLC and other cancers” (Immatics Biotechnologies GmbH, priority 2017, dated 2022)

Test system: tumor tissue samples
Experiment: Identification and relative quantitation of HLA-presented tumor associated peptides by LC-MS (presentation profile)
Parameters: species or system human
Details: HLA-A*01 cancer tissues vs HLA-A*01 normal samples (N=13 normal, N=40 tumor); FIGS. 1E-1F

Row | Substance | over-presentation of peptide in cancer tissues compared to normal samples
1 | SEQ ID NO.: 174 (SADDIRGIQSLY; listed as Homo sapiens) | over-presentation

Same assay, conditions: HLA-A*03 cancer tissues vs HLA-A*03 normal samples (N=12 normal, N=28 tumor); FIGS. 1G-1H

Row | Substance | over-presentation of peptide in cancer tissues compared to normal samples
2 | SEQ ID NO.: 202 (KLAELEGALQK; listed as Homo sapiens) | over-presentation

Same assay, conditions: HLA-B*44 cancer tissues vs HLA-B*44 normal samples (N=15 normal, N=25 tumor); FIGS. 1M-1N

Row | Substance | over-presentation of peptide in cancer tissues compared to normal samples
3 | SEQ ID NO.: 489 (SEIGKAVGF; listed as Homo sapiens) | over-presentation

Same assay, conditions: cancer entities on which the peptide is presented (Table 8)

Row | Substance | presentation on various cancer entities
4 | SEQ ID No. 3 (YLEKFYGL; listed as Homo sapiens) | hepatocellular carcinoma

Same assay, conditions: cancer entities on which the tumor-associated peptide was found presented (HLA ligandome LC-MS); abbreviations per table footnote

Row | Substance | Peptide Presentation on cancer entities
5 | 120 (ALLANLPAV; listed as Homo sapiens) [compound 120] | GBC, GC, OC, PACA
6 | 58 (QFAAPLRGIYF; listed as Homo sapiens) [compound 58] | GBM, HCC
7 | 367 (GEVHPSEMI; listed as Homo sapiens) [compound 367] | UEC
8 | 21 (SYEVRSTF; listed as Homo sapiens) [compound 21] | CCC, OC, PRCA
9 | 359 (DELFSIALY; listed as Homo sapiens) [compound 359] | NHL
10 | 130 (NLWGGQGLLGV; listed as Homo sapiens) [compound 130] | BRCA, GBC, GBM, GC, HCC, OC, PRCA, UEC
11 | 127 (GLDGSLVFL; listed as Homo sapiens) [compound 127] | AML, CLL, CRC, GBM, HCC, HNSCC, MEL, NHL, OC, OSCAR, UBC
12 | 275 (APHPPLSVV; listed as Homo sapiens) [compound 275] | AML, BRCA, MEL
13 | 354 (TEDPTILRI; listed as Homo sapiens) [compound 354] | GC, HCC, OC, PRCA, UEC
14 | 388 (FSIPEGALVAV; listed as Homo sapiens) [compound 388] | AML, CCC, CLL, CRC, GBC, GC, HCC, HNSCC, MEL, NHL, OC, OSCAR, PRCA, RCC, UBC, UEC
15 | 173 (RTEFNLNQY; listed as Homo sapiens) [compound 173] | GBC, GC, MEL, UEC
16 | 44 (AYLSAVGTF; listed as Homo sapiens) [compound 44] | AML, GC, MEL
17 | 134 (AAEIGDKSWLY; listed as Homo sapiens) [compound 134] | GC, MEL, NHL, UEC
18 | 60 (TYLSIFDQL; listed as Homo sapiens) [compound 60] | AML, GC, HCC, OC
19 | 170 (RSDDTAVYY; listed as Homo sapiens) [compound 170] | CLL, GC, HCC, NHL, PRCA, UEC
20 | 476 (AEEEIMKKI; listed as Homo sapiens) [compound 476] | NHL
21 | 485 (SEIEDSTKQVF; listed as Homo sapiens) [compound 485] | MEL, NHL, OC
22 | 182 (TDYHVRVY; listed as Homo sapiens) [compound 182] | GBM, PRCA
23 | 403 (ELDSKVEVLTY; listed as Homo sapiens) [compound 403] | GBM, GC, MEL, OC, PRCA
24 | 251 (VPRSSGQTV; listed as Homo sapiens) [compound 251] | BRCA, GBM, UEC
25 | 31 (QYQNVLTLW; listed as Homo sapiens) [compound 31] | GBM, GC, HCC, MEL, NHL, PRCA, RCC, UEC

Row | Substance | Peptide Presentation on cancer entities
26 | 154 (LLDISQKNLY; listed as Homo sapiens) [compound 154] | GBM, NHL, PRCA
27 | 87 (TLYPYQISQL; listed as Homo sapiens) [compound 87] | HCC, OSCAR
28 | 280 (VPISEEGTPVL; listed as Homo sapiens) [compound 280] | MEL, OC, PRCA, UEC
29 | 293 (RPRSALPRLLLP; listed as Homo sapiens) [compound 293] | NHL, UEC
30 | 92 (NLRDLLSEV; listed as Homo sapiens) [compound 92] | HCC
31 | 34 (MQPRMFFLF; listed as Homo sapiens) [compound 34] | AML, GBM, HCC, MEL, UEC
32 | 271 (MPLPWSLALP; listed as Homo sapiens) [compound 271] | MEL
33 | 444 (TTDTVIRSY; listed as Homo sapiens) [compound 444] | GC, MEL, UEC
34 | 163 (NSDSSLTLREFY; listed as Homo sapiens) [compound 163] | HCC, PRCA
35 | 430 (NTEGLHHLY; listed as Homo sapiens) [compound 430] | GBM, HCC, MEL, PRCA
36 | 123 (LMAFFLAVV; listed as Homo sapiens) [compound 123] | CCC, HCC, NHL, OSCAR, RCC
37 | 141 (ESDVGVVVY; listed as Homo sapiens) [compound 141] | GBM, GC
38 | 385 (MYINEVERL; listed as Homo sapiens) [compound 385] | GBM, MEL, OC, PRCA, UEC
39 | 77 (AYTLLGHEFV; listed as Homo sapiens) [compound 77] | GC, MEL, OC
40 | 386 (VYNDHSIYVW; listed as Homo sapiens) [compound 386] | AML, GBM, HCC, MEL, NHL, PRCA, UEC
41 | 337 (TENRYCVQL; listed as Homo sapiens) [compound 337] | HCC
42 | 322 (KEVDPAGHSY; listed as Homo sapiens) [compound 322] | NHL
43 | 210 (ATSGVPVYK; listed as Homo sapiens) [compound 210] | UEC
44 | 366 (AENLFRAF; listed as Homo sapiens) [compound 366] | GBM, NHL, OC
45 | 47 (KYADYFLEV; listed as Homo sapiens) [compound 47] | GBM, OC, UEC
46 | 180 (STDPWIQMAY; listed as Homo sapiens) [compound 180] | GBM, GC, MEL

Row | Substance | Peptide Presentation on cancer entities
47 | 392 (SLFKDQMEL; listed as Homo sapiens) [compound 392] | AML, BRCA, CLL, CRC, GBM, HCC, MEL, NHL, OC, PRCA, RCC, UBC, UEC
48 | 316 (VIKEKALTL; listed as Homo sapiens) [compound 316] | NHL, OC, PRCA, RCC
49 | 375 (VYSDLHAFYY; listed as Homo sapiens) [compound 375] | GBM, GC, HCC, MEL, PRCA
50 | 384 (KYVKVFDKF; listed as Homo sapiens) [compound 384] | AML, UEC
51 | 398 (ASEQQALHTVQY; listed as Homo sapiens) [compound 398] | GBM, GC, MEL, NHL, PRCA, UEC
52 | 295 (KPEGTRIAV; listed as Homo sapiens) [compound 295] | NHL, UEC
53 | 59 (KYSTTFFMV; listed as Homo sapiens) [compound 59] | GBM
54 | 73 (SYIGLPLTL; listed as Homo sapiens) [compound 73] | GC, HCC, RCC
55 | 374 (DEVNFLVY; listed as Homo sapiens) [compound 374] | CCC, GBC, GBM, NHL, OC, PRCA
56 | 276 (LPRAGGAFL; listed as Homo sapiens) [compound 276] | NHL, OC, RCC, UEC
57 | 482 (TEREWADEW; listed as Homo sapiens) [compound 482] | AML, MEL, NHL, OC, RCC
58 | 356 (EEGRVYLF; listed as Homo sapiens) [compound 356] | GBM, PRCA
59 | 213 (LNINMTSPMGTK; listed as Homo sapiens) [compound 213] | GBM, GC, MEL, NHL, PACA
60 | 74 (VYDQYFITL; listed as Homo sapiens) [compound 74] | AML, PRCA
61 | 452 (YVDAVLGKGHQY; listed as Homo sapiens) [compound 452] | GBM, GC, MEL, NHL, OC, PRCA, UEC
62 | 314 (AIISRLVAL; listed as Homo sapiens) [compound 314] | NHL, OSCAR, UBC
63 | 255 (MPLLENLYL; listed as Homo sapiens) [compound 255] | OC, UEC
64 | 247 (RALLARLLL; listed as Homo sapiens) [compound 247] | NHL
65 | 61 (NYAENILTL; listed as Homo sapiens) [compound 61] | AML, GBM, GC, MEL
66 | 357 (RELENCFQIQ; listed as Homo sapiens) [compound 357] | UEC
67 | 102 (SLLEQAIAL; listed as Homo sapiens) [compound 102] | GC, HCC, NHL, OC, UEC
